# In the supplement of paper PMC4604168 (melanoma cell lines):
# This is one part of the list. Many values rest on one well or one pass, so single values are uncertain.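 Imaging used 1,536-well plates; nuclei positive for cleaved PARP by antibody were divided by total DNA-stained nuclei to yield the apoptosis fraction. Doses for screening kept most cells viable, and cell lines differ markedly in resting and induced cleaved-PARP levels.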
# Tests used:
# Experiment in all cases: cleaved PARP positive nuclei fraction relative to DMSO control; melanoma cells; higher = more apoptosis
# Details in all cases: library dose: low library concentration; 72 h
# MZ2-MEL = tested on: MZ2-MEL
# MeWo = tested on: MeWo
# RPMI7951 = tested on: RPMI7951
# RVH-421 = tested on: RVH-421
# SkMel28 = tested on: SkMel28
# SkMel2 = tested on: SkMel2
# SkMel30 = tested on: SkMel30
# UACC62 = tested on: UACC62
# WM115 = tested on: WM115
# WM1716 = tested on: WM1716
# WM1745 = tested on: WM1745
# WM3526 = tested on: WM3526
# WM3619 = tested on: WM3619
# WM451Lu = tested on: WM451Lu
# SkMel5 = tested on: SkMel5
# UACC257 = tested on: UACC257
Structure (SMILES),cleaved PARP positive nuclei fraction (MZ2-MEL),cleaved PARP positive nuclei fraction (MeWo),cleaved PARP positive nuclei fraction (RPMI7951),cleaved PARP positive nuclei fraction (RVH-421),cleaved PARP positive nuclei fraction (SkMel28),cleaved PARP positive nuclei fraction (SkMel2),cleaved PARP positive nuclei fraction (SkMel30),cleaved PARP positive nuclei fraction (UACC62),cleaved PARP positive nuclei fraction (WM115),cleaved PARP positive nuclei fraction (WM1716),cleaved PARP positive nuclei fraction (WM1745),cleaved PARP positive nuclei fraction (WM3526),cleaved PARP positive nuclei fraction (WM3619),cleaved PARP positive nuclei fraction (WM451Lu),cleaved PARP positive nuclei fraction (SkMel5),cleaved PARP positive nuclei fraction (UACC257)
"Nc1nc(F)nc2c1ncn2[C@@H]1O[C@H](CO)[C@@H](O)[C@@H]1O [fludarabine] + COc1ccc(Cl)c(Nc2nc3ccccc3nc2NS(=O)(=O)c2cccc(NC(=O)C(C)(C)N)c2)c1 [XL147] (first compound 0.2 µM, partner dose 0.8 µM)",76.7%,1190%,106%,55.6%,53.2%,894%,1610%,34.9%,180%,49.6%,156%,280%,85.1%,94.3%,,
"CNC(=O)c1cc(Oc2ccc(NC(=O)Nc3ccc(Cl)c(C(F)(F)F)c3)cc2)ccn1 [sorafenib] + Cn1nnc2c(C(N)=O)ncn2c1=O [temozolomide] (first compound 0.4 µM, partner dose 2 µM)",92.1%,74.7%,61.6%,171%,33%,20.4%,24.8%,95.3%,31.2%,130%,85.3%,42.9%,99.3%,107%,,
"O=C(O)c1ccc2c(c1)nc(Nc1cccc(Cl)c1)c1ccncc12 + C=CCNC1=C2C[C@@H](C)C[C@H](OC)[C@H](O)[C@@H](C)/C=C(\C)[C@H](OC(N)=O)[C@@H](OC)/C=C\C=C(/C)C(=O)NC(=CC1=O)C2=O [Tanespimycin] (first compound 0.4 µM, partner dose 0.002 µM)",78.5%,148%,77.9%,178%,75%,111%,109%,177%,185%,165%,99.6%,110%,82.7%,104%,,
"CO[C@H]1C[C@@H]2CC[C@@H](C)[C@@](O)(O2)C(=O)C(=O)N2CCCC[C@H]2C(=O)O[C@H]([C@H](C)C[C@@H]2CC[C@@H](OCCO)[C@H](OC)C2)CC(=O)[C@H](C)/C=C(\C)[C@@H](O)[C@@H](OC)C(=O)[C@H](C)C[C@H](C)/C=C/C=C/C=C/1C [everolimus] + COc1cc2c(Oc3ccc4[nH]c(C)cc4c3F)ncnc2cc1OCCCN1CCCC1 [cediranib] (first compound 0.02 µM, partner dose 0.4 µM)",117%,88.8%,285%,220%,149%,,396%,218%,121%,98%,107%,174%,136%,431%,169%,178%
"O=C(O)c1ccc2c(c1)nc(Nc1cccc(Cl)c1)c1ccncc12 + Cc1nc(Nc2ncc(C(=O)Nc3c(C)cccc3Cl)s2)cc(N2CCN(CCO)CC2)n1 [dasatanib] (first compound 0.4 µM, partner dose 0.004 µM)",177%,84.1%,65.6%,119%,85.1%,227%,53.1%,126%,171%,307%,119%,80.5%,104%,74.6%,,
"CN1CCN(c2ccc3nc(-c4c(N)c5c(F)cccc5[nH]c4=O)[nH]c3c2)CC1 [Dovitinib] + OCc1c[nH]c2ccccc12 [Indole-3-carbinol] (first compound 0.1 µM, partner dose 0.8 µM)",70.3%,135%,59.4%,73.7%,41.6%,94.9%,161%,65.6%,108%,149%,112%,52.3%,79.7%,30.8%,,
